# Patent US10091998B2, “Tetrazolinone compound and use thereof” (SUMITOMO CHEMICAL COMPANY, LIMITED, priority 2013, dated 2018)
# Some entries share one result that the patent states for a list of compounds.
# System: cucumber powdery mildew fungus (Sphaerotheca fuliginea, a QoI-resistant strain, cytochrome b position 143 glycine to alanine)
# Format: in vivo
# Details: 200 ppm spray on cucumber (SAGAMI HANJIRO); investigated 8 days after inoculation
row,Structure (SMILES),area of lesion on the treated plant relative to that on an untreated plant [%]
1,Cc1cccc(-n2nnn(C)c2=O)c1OCc1ccccc1Oc1ccccc1 [Present Compound 4],≤ 30
2,Cc1cc(-c2ccccc2C)ccc1/C=C/c1c(C)cccc1-n1nnn(C)c1=O [Present Compound 28],≤ 30
3,Cc1cccc(-n2nnn(C)c2=O)c1OCc1cccc(Oc2ccccc2)c1 [Present Compound 8],≤ 30
4,Cc1cccc(-c2ccc(/C=C/c3c(C)cccc3-n3nnn(C)c3=O)c(C)c2)c1 [Present Compound 29],≤ 30
5,Cc1cccc(-n2nnn(C)c2=O)c1OCc1ccc(-c2ccccc2)cc1 [Present Compound 10],≤ 30
6,"Cc1cccc(-n2nnn(C)c2=O)c1OCc1ccccc1 [Present Compound 1, 1-(2-phenylmethoxy-3-methylphenyl)-4-methyl-1,4-dihydrotetrazol-5-one]",≤ 30
7,Cc1cccc(-n2nnn(C)c2=O)c1OCc1cccc(-c2ccccc2)c1 [Present Compound 7],≤ 30
8,Cc1ccc(-c2cc(C)c(COc3c(C)cccc3-n3nnn(C)c3=O)cc2C)nc1 [Present Compound 41],≤ 30
9,"Cc1cc(-c2ccccc2)ccc1COc1c(C)cccc1-n1nnn(C)c1=O [Present Compound 13, 1-{2-[(4-phenyl-2-methylphenyl)methoxy]-3-methylphenyl}-4-methyl-1,4-dihydrotetrazol-5-one]",≤ 30
10,Cc1ccccc1COc1c(C)cccc1-n1nnn(C)c1=O [Present Compound 6],≤ 30
11,Cc1cccc(-n2nnn(C)c2=O)c1OCc1ccc(Oc2ccccc2)cc1 [Present Compound 11],≤ 30
12,Cc1cc(-c2ncccc2F)c(C)cc1COc1c(C)cccc1-n1nnn(C)c1=O [Present Compound 46],≤ 30
